Assay results taken from the supplement of paper PMC11732987, “Enantioselective OTUD7B fragment discovery through chemoproteomics screening and high-throughput optimisation” (Communications Chemistry, 2025).
This is one part of the list. The data scatter; read single values as rough.

These compounds were tested against T1, FBXO45 C17 (UniProt P0C2W1) (assay: log2 mean competition ratio of IA-DTB cysteine labelling (DMSO/compound) (log2 ratio); higher = stronger cysteine engagement by compound). Conditions: 50 µM; treatment time: 4 h; cell line lysate: HEK293T.
T1 sequence (whole entry): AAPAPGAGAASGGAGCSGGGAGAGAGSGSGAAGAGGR
Protocol: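 IA-DTB competitive cysteine chemoproteomics in HEK293T RIPA lysate. Lysates were treated with compound 29 or 30 at 50 or 200 µM for 4 h, then IA-DTB (500 µM, 1 h), trypsin-digested, NeutrAvidin-enriched and analysed by diaPASEF. Competition ratio = intensity DMSO / intensity compound (n=4 treated, n=64 DMSO); binding: mean log2 CR ≥ 1 and p ≤ 0.05 plus QC filters. Target is the cysteine site.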

| SMILES | log2 mean competition ratio |
| --- | --- |
| O=C(CCl)N[C@@H]1CCCc2ccccc21 | -0.227 |
| O=C(CCl)N[C@H]1CCCc2ccccc21 | -0.317 |

Same assay, conditions: 200 µM; treatment time: 4 h; cell line lysate: HEK293T

| SMILES | log2 mean competition ratio |
| --- | --- |
| O=C(CCl)N[C@@H]1CCCc2ccccc21 | -0.0113 |
| O=C(CCl)N[C@H]1CCCc2ccccc21 | -0.162 |
